These are yes or no findings as the source states them, for the method shown. Some entries that bind do so weakly or less than the wild type.
Experiments:
[1] = molecular target: MUC1* as it appears on cancer cells and cancerous tissues (Homo sapiens (Human)) (UniProt P15941); test: flow cytometry (FIGS. 4A-4C)
[2] = molecular target: MUC1* as it appears on cancer cells and cancerous tissues (Homo sapiens (Human)) (UniProt P15941); test: immunofluorescence on T47D cells (FIG. 24)
[3] = molecular target: MUC1* as it appears on cancer cells and cancerous tissues (Homo sapiens (Human)) (UniProt P15941); test: immunofluorescence on T47D breast cancer cells (FIG. 24)
[4] = molecular target: MUC1* as it appears on cancer cells and cancerous tissues (Homo sapiens (Human)) (UniProt P15941); test: flow cytometry on ZR-75-1 (1500) breast cancer cells, anti-Penta-His Alexa 488
[5] = molecular target: MUC1* as it appears on cancer cells and cancerous tissues (Homo sapiens (Human)) (UniProt P15941); test: flow cytometry
[6] = molecular target: MUC1* expressed on transfected cells (MUC1*45) (Homo sapiens (Human)) (UniProt P15941); test: flow cytometry
[7] = molecular target: MUC1* as it appears on cancer cells and cancerous tissues (Homo sapiens (Human)) (UniProt P15941); test: selection screens
[8] = molecular target: MUC1* as it appears on cancer cells and cancerous tissues (Homo sapiens (Human)) (UniProt P15941); test: immunohistochemistry of breast cancer tissue arrays, Allred scoring (FIGS. 43, 44)
[9] = molecular target: MUC1* as it appears on cancer cells and cancerous tissues (Homo sapiens (Human)) (UniProt P15941); test: immunohistochemistry of human cancer tissue arrays (FIGS. 69-74; arrays of FIGS. 70-74 were stained with huMNC2scFv)
[10] = molecular target: MUC1* expressed on transfected cells (MUC1*45) (Homo sapiens (Human)) (UniProt P15941); test: cell binding assay, CAR-transduced HEK293 cells (GFP) with CMTMR-stained K562-MUC1* cells, after wash steps (FIG. 108)
[11] = molecular target: MUC1* expressed on transfected cells (MUC1*45) (Homo sapiens (Human)) (UniProt P15941); test: CAR T co-culture with HCT-FLR (HCT-116 transfected with MUC1*45), microscopy (FIG. 75C)
[12] = molecular target: MUC1* as it appears on cancer cells and cancerous tissues (Homo sapiens (Human)) (UniProt P15941); test: CAR T co-culture with T47D cells with or without MMP2, MMP9 or ADAM17 conditioned media, microscopy (FIG. 76)
[13] = molecular target: MUC1* as it appears on cancer cells and cancerous tissues (Homo sapiens (Human)) (UniProt P15941); test: tissue staining
[14] = molecular target: MUC1* as it appears on cancer cells and cancerous tissues (Homo sapiens (Human)) (UniProt P15941); test: tissue and cell staining
[15] = molecular target: MUC1* as it appears on cancer cells and cancerous tissues (Homo sapiens (Human)) (UniProt P15941); test: flow cytometry (FIGS. 4D-4F)
[16] = molecular target: MUC1* expressed on transfected cells (MUC1*45) (Homo sapiens (Human)) (UniProt P15941); test: flow cytometry (FIGS. 4D-4F)
[17] = molecular target: MUC1* as it appears on cancer cells and cancerous tissues (Homo sapiens (Human)) (UniProt P15941); test: flow cytometry on ZR-75-1 (1500) breast cancer cells
[18] = molecular target: MUC1* expressed on transfected cells (MUC1*45) (Homo sapiens (Human)) (UniProt P15941); test: flow cytometry, HCT-116 transfected with MUC1* clone #10 against empty vector clone #8

Chains of the proteins cited; added tags and fusions are not shown. Lines headed by an entry give the natural chain unless they say otherwise; changes in a name come on top.
UniProt P15941: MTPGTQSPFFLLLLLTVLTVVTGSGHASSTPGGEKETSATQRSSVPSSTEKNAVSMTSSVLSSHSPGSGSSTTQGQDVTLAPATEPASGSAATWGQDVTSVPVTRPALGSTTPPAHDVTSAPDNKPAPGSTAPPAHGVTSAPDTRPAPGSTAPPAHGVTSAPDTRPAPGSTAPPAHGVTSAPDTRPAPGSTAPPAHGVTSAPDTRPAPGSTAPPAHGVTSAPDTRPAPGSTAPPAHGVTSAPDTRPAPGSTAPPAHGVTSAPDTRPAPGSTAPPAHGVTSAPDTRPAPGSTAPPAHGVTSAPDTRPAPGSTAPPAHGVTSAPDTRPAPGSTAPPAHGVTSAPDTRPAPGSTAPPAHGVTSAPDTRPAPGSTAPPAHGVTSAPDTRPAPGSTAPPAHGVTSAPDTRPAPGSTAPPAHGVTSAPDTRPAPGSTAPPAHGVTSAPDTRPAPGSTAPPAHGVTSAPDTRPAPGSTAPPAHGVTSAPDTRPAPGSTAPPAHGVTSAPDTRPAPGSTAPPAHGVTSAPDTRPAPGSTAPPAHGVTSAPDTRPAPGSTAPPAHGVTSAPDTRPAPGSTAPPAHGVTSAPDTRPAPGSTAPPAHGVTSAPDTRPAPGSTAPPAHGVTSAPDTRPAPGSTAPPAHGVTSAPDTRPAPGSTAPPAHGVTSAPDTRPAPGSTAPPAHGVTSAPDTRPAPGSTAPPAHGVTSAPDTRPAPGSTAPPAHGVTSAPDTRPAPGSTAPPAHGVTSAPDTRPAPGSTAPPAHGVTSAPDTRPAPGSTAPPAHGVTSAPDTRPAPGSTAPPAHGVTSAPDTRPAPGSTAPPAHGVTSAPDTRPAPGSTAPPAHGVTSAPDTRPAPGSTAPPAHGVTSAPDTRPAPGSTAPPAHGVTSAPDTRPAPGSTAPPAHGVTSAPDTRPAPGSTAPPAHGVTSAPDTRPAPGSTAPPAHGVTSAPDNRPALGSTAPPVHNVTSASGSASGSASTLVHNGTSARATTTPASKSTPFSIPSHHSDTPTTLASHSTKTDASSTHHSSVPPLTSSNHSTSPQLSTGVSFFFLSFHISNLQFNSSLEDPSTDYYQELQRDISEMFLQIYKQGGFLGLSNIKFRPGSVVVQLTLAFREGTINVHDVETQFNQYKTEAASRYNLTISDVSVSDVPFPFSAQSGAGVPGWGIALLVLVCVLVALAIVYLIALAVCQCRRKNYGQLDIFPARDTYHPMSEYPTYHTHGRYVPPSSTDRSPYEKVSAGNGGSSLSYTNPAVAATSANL

Measured: binding

B1: humanized MN-C2 scFv (scFv, V domains shown, not shown: small tags and cut ends)
VH: EVQLVESGGGLVKPGGSLRLSCAASGFTFSGYAMSWVRQAPGKGLEWVSTISSGGTYIYYPDSVKGRFTISRDNAKNSLYLQMNSLRAEDTAVYYCARLGGDNYYEYFDVWGKGTTVTVSS
VL: DIVLTQSPASLAVSPGQRATITCRASKSVSTSGYSYMHWYQQKPGQPPKLLIYLASNLESGVPARFSGSGSGTDFTLTINPVEANDTANYYCQHSRELPFTFGGGTKVEIKR
notes: also called huMN-C2 scFv; hMN-C2 scFv
binds: [1] | [2] | [3] | [4]

B2: mouse monoclonal antibody MN-C2 (antibody, V domains shown)
VH: EVQLEESGGGLVKPGGSLKLSCAASGFTFSGYAMSWVRQTPEKRLEWVATISSGGTYIYYPDSVKGRFTISRDNAKNTLYLQMSSLRSEDTAMYYCARLGGDNYYEYFDVWGAGTTVTVSS
VL: DIVITQSTASLGVSLGQRATISCRASKSVSTSGYSYMHWYQQRPGQPPKLLIYLASNLESGVPARFSGSGSGTDFTLNIHPVEEEDAATYYCQHSRELPFTFGGGTKLEIKR
notes: also called Min-C2
binds: [5] | [6] | [7] | [8] | [9]

B3: humanized MN-E6 scFv (scFv, V domains shown, not shown: small tags and cut ends)
VH: EVQLVESGGGLVKPGGSLRLSCAASGFTFSRYGMSWVRQAPGKRLEWVSTISGGGTYIYYPDSVKGRFTISRDNAKNTLYLQMNSLRAEDTAVYYCTRDNYGRNYDYGMDYWGQGTLVTVSS
VL: EIVLTQSPATLSLSPGERATLTCSATSSVSYIHWYQQRPGQSPRLLIYSTSNLASGIPARFSGSGSGSDYTLTISSLEPEDFAVYYCQQRSSSPFTFGSGTKVEIK
notes: also called hu MN-E6 scFv
binds: [2] | [3]

B4: CAR57: huC2-IgD-CD8-41BB-3z (protein)
chain: EVQLVESGGGLVKPGGSLRLSCAASGFTFSGYAMSWVRQAPGKGLEWVSTISSGGTYIYYPDSVKGRFTISRDNAKNSLYLQMNSLRAEDTAVYYCARLGGDNYYEYFDVWGKGTTVTVSSGGGGSGGGGSGGGGSDIVLTQSPASLAVSPGQRATITCRASKSVSTSGYSYMHWYQQKPGQPPKLLIYLASNLESGVPARFSGSGSGTDFTLTINPVEANDTANYYCQHSRELPFTFGGGTKVEIKRTESPKAQASSVPTAQPQAEGSLAKATTAPATTRNTGRGGEEKKKEKEKEEQEERETKTPIYIWAPLAGTCGVLLLSLVITLYCKRGRKKLLYIFKQPFMRPVQTTQEEDGCSCRFPEEEEGGCELRVKFSRSADAPAYKQGQNQLYNELNLGRREEYDVLDKRRGRDPEMGGKPRRKNPQEGLYNELQKDKMAEAYSEIGMKGERRRGKGHDGLYQGLSTATKDTYDALHMQALPPR
binds: [10]

B5: huMNC2-CAR50 (CAR-T C2 CD4/CD4/4-1BB/CD3z #50) (protein)
chain: EVQLVESGGGLVKPGGSLRLSCAASGFTFSGYAMSWVRQAPGKGLEWVSTISSGGTYIYYPDSVKGRFTISRDNAKNSLYLQMNSLRAEDTAVYYCARLGGDNYYEYFDVWGKGTTVTVSSGGGGSGGGGSGGGGSDIVLTQSPASLAVSPGQRATITCRASKSVSTSGYSYMHWYQQKPGQPPKLLIYLASNLESGVPARFSGSGSGTDFTLTINPVEANDTANYYCQHSRELPFTFGGGTKVEIKRTSGQVLLESNIKVLPTWSTPVQPMALIVLGGVAGLLLFIGLGIFFKRGRKKLLYIFKQPFMRPVQTTQEEDGCSCRFPEEEEGGCELRVKFSRSADAPAYKQGQNQLYNELNLGRREEYDVLDKRRGRDPEMGGKPRRKNPQEGLYNELQKDKMAEAYSEIGMKGERRRGKGHDGLYQGLSTATKDTYDALHMQALPPR
binds: [11] | [12]

B6: mouse monoclonal antibody MN-E6 (antibody, V domains shown)
VH: EVKVVESGGDLVKPGGSLKLSCVVSGFTFSRYGMSWVRQTPGKRLEWVATISGGGTYIYYPDSVKGRFTISRDNAKNTLYLQMSSLKSEDTAMYHCTRDNYGRNYDYGMDYWGQGTSVTVSS
VL: QIVLTQSPAIMSASPGEEVTLTCSATSSVSYIHWFQQRPGTSPKLWIYSTSNLASGVPVRFSGSGYGTSYSLTISRMEAEDAATYYCQQRSSSPFTFGSGTKLEIK
notes: also called Min-E6; parent MN-E6 antibody
binds: [13] | [7] | [14] | [15] | [16] | [17] | [18]
